No constants are given. Whether binding was seen depends on the method and setting. In cells and extracts the contact can be indirect. Binding calls can cover weak binding; strength is not graded here. Sequences can lack the tags named with a protein.
Target: T1, UNC45B-FLAG (human) (UniProt Q8IWX7)
T1 sequence: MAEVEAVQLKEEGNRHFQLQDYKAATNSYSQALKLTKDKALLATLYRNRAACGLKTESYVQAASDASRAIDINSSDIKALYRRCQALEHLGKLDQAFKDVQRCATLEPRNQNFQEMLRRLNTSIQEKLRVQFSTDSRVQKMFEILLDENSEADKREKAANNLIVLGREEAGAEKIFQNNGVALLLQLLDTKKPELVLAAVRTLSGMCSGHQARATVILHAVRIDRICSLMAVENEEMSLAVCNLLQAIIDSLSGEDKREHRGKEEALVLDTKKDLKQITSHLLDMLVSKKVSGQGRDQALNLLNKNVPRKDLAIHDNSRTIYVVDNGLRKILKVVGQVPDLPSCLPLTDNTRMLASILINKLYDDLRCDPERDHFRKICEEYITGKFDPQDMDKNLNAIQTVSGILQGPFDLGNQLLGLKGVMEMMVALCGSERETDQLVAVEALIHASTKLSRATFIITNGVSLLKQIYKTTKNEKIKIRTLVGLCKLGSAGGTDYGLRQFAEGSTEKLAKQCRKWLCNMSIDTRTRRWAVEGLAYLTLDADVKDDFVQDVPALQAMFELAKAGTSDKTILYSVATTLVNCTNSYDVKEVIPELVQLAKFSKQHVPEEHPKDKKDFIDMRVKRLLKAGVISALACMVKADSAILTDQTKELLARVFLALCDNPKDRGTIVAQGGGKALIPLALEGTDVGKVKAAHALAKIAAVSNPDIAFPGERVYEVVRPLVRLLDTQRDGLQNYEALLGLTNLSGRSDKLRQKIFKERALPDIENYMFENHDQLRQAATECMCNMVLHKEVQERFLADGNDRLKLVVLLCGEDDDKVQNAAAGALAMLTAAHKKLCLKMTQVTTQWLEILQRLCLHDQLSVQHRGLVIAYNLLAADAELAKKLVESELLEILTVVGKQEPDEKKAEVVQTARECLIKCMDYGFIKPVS
Assay: co-IP; UNC45B-FLAG pulled down with anti-FLAG beads from lysates of WT^UNC45B-OE-CMs, WT-CMs as negative control; eluates analysed by SDS-PAGE and western blot

For HSP70, the binding was “binds”.
